Assay results reported in PubChem BioAssay AID540276 (National Center for Advancing Translational Sciences (NCATS), 2011).
Hit rate of the full screen: of about 300,000 compounds, about 5,400 (1.8%) were called active. This list was built around the results that the source calls inconclusive (neither active nor inactive); the mix of calls is not that of the screen. Calls follow the shape of the full dose curve; tested in HEK293 cells. Potencies beside an inconclusive call are fits to weak or partial responses and may not hold up.

Assay: qHTS for inhibitors of binding or entry into cells for Marburg Virus
Conditions: Marburg virus pseudotyped entry inhibition, cell reporter; activity change, negative = inhibition: at 37.8 µM (top of the series) unless noted
% is scaled to controls: 0 for no effect and ±100 for the full control effect; potency is read from the fitted curve at half-maximal effect.

| Structure (SMILES) | Potency | activity change, negative = inhibition |
| --- | --- | --- |
| Cc1nc2ccc(NC(=O)c3cc([N+](=O)[O-])cc([N+](=O)[O-])c3Cl)cc2s1 | inconclusive: 35.5 µM [activator, single point] |  |
| CCOc1cc(/C=C2\SC(=O)N(CC(=O)Nc3ccccc3F)C2=O)cc([N+](=O)[O-])c1O | inconclusive: 35.5 µM [inhibitor, single point] |  |
| COC(=O)CC1SCCNC1=O (stereo unspecified) |  | inactive: 9.57% |
| Cc1ccc(OC(=O)c2ccc(Br)o2)cc1 |  | inactive: -2.05% |
| COc1cccc(C(=O)CSc2nccn2C)c1 | inconclusive: 14.1 µM [activator, single point] |  |
| C=CCOC(=O)C1=C(C)Nc2ncnn2C1c1cc(Br)ccc1F (stereo unspecified) | inconclusive: 32.6 µM [inhibitor, single point] |  |
| Cc1cc(NCC2CCCCC2)nc2ccccc12 | active: 1 µM |  |
| N#Cc1cccc(OCC(=O)NC(=O)NCc2ccccc2)c1 |  | inactive: 14.9% [at 46.1 µM] |
| CC1=CC(C)(C)n2c(O)c(N=NC(N)=S)c3c(C)ccc1c32 |  | inactive: -2.74% |
| CCc1nn(CC(=O)NCc2ccco2)c(=O)c2cc3cc(F)ccc3n12 |  | inactive: -19.9% [at 46.1 µM] |
| Cc1ccc(NC(=O)c2nc(S(C)(=O)=O)ncc2N(Cc2cccc(F)c2)Cc2ccco2)cc1C | inconclusive: 0.891 µM [inhibitor, full curve, poor fit] |  |
| Cc1ccc(S(=O)(=O)N2CCCCC2CCNC(=O)C(=O)NCc2ccccc2)cc1 (stereo unspecified) | inconclusive: 7.08 µM [inhibitor, full curve, poor fit] |  |
| COc1ccc(NC(=O)CCN2C(=O)C3CC=CCC3C2=O)cc1S(=O)(=O)N1CCCCC1 (stereo unspecified) |  | inactive: -2.34% |
| Cc1cc(Cl)ccc1OCCCC(=O)NO |  | inactive: 2.28% |
| Nc1cc(C(=O)OCC(=O)NCCCc2ccccc2)ccc1Cl | inconclusive: 35.5 µM [activator, single point] |  |
| CC(=O)c1cccc(NC(=O)CSCc2ccc(Br)cc2)c1 |  | inactive: 9.2% |
| Cc1ccc(/C=C(\C#N)C(=O)Nc2cccc3ncccc23)o1 | inconclusive: 1.26 µM [activator, single point] |  |
| COc1ccc(Nc2nc(N3CCCC3)c3ccccc3n2)cc1 | active: 1.58 µM |  |
| COc1ccc(OC)c(NC(=O)Cn2nc3c(cc2=O)CCCC3)c1 | inconclusive: 6.31 µM [inhibitor, single point] |  |
| Cc1[nH]c2ccccc2c1/C=N/n1cnnc1 |  | inactive: 4.88% |
| Cc1cccc(C)c1NC(=O)COC(=O)c1c2c(nc3ccccc13)/C(=C\c1ccc3c(c1)OCO3)CCC2 | inactive |  |
| COC(=O)Nc1c(-c2ccccc2)nc2ccc(C)cn12 | inconclusive: 20 µM [inhibitor, single point] |  |
| COc1cc(CNCc2ccccn2)ccc1OCc1ccc(Cl)c(Cl)c1 | inconclusive: 7.08 µM [inhibitor, partial curve, poor fit] |  |
| O=C(NCCN1CCOCC1)c1ccc(Cl)cc1 | inconclusive: 16.4 µM [activator, partial curve] |  |

| Structure (SMILES) | Potency | activity change, negative = inhibition |
| --- | --- | --- |
| COC(=O)C(C)(C)ONC(=O)Nc1ccc(Br)cc1 | inconclusive: 18.4 µM [activator, partial curve, poor fit] |  |
| O=C(CNC(=O)C1CC1)Nc1ccc(F)c(F)c1F |  | inactive: 2.79% [at 46.1 µM] |
| CC(=O)c1ccc(Oc2nc(-c3cccnc3)nc3ccccc23)cc1 |  | inactive: -0.505% [at 46.1 µM] |
| Cc1ccc(CNC(=O)c2oc3ccc(S(=O)(=O)N4CCCC(C)C4)cc3c2C)cc1 (stereo unspecified) | inconclusive: 35.5 µM [inhibitor, single point] |  |
| O=C(Cc1ccc2c(c1)OCO2)NN=Cc1ccc([N+](=O)[O-])o1 | active: 10 µM |  |
| Cc1ccc(Nc2nc(N)nc(CSC(=S)N3CCOCC3)n2)cc1 |  | inactive: 14.7% |
| CCS(=O)(=O)c1ccc2oc(SCC(=O)NCCC3=CCCCC3)nc2c1 | inconclusive: 12.6 µM [inhibitor, partial curve] |  |
| CC1CCCN(CC(=O)Nc2cc(Cl)ccc2Oc2ccccc2)C1 (stereo unspecified) | inconclusive: 12.6 µM [inhibitor, single point] |  |
| CC1=C(C(=O)OC2CCCCC2)C(c2cccnc2)n2nnnc2N1 (stereo unspecified) | inconclusive: 7.94 µM [inhibitor, partial curve, poor fit] |  |
| O=C(Nc1ccc2c(c1)OCCO2)C1CCCN(c2ncccn2)C1 (stereo unspecified) | inconclusive: 2.06 µM [activator, partial curve] |  |
| Cc1ccc(Cn2c(C)c3cnn(CC(=O)N4CCC5(CC4)OCCO5)c(=O)c3c2C)cc1 | inconclusive: 17.8 µM [inhibitor, single point] |  |
| Cc1cc(C)n(CC(=O)c2ccccc2)c(=O)c1C#N | inconclusive: 3.55 µM [activator, full curve] |  |
| CCOC(=O)C1CCCN(C(=O)C2CCN(S(=O)(=O)c3cnc[nH]3)CC2)C1 (stereo unspecified) | inconclusive: 0.112 µM [inhibitor, full curve, poor fit] |  |
| Cc1ccc(NC(=O)COC(=O)CN2C(=O)NC(C)(C)C2=O)cc1S(=O)(=O)N1CCOCC1 |  | inactive: 1.37% |
| COc1cc(N2CCOCC2)ccc1/C=C1\C(=O)NC(=O)N(Cc2cccs2)C1=O |  | inactive: -3.25% [at 46.1 µM] |
| CCOC(=O)C1(Cc2cccc(OC)c2)CCN(Cc2cnc(N)nc2)CC1 | inconclusive: 8.91 µM [activator, partial curve, poor fit] |  |
| N/C(=N\OS(=O)(=O)c1ccc(Cl)cc1)c1ccccn1 | inconclusive: 10 µM [inhibitor, partial curve] |  |
| Cc1ccc(S(=O)(=O)c2c(C)nn(-c3ccccc3)c2OC(=O)c2ccco2)cc1 | inconclusive: 0.0891 µM [activator, partial curve, poor fit] |  |
| CCOC(=O)C1=C(N)OC2=C(C(=O)CCC2)C12C(=O)N(CC(N)=O)c1ccccc12 (stereo unspecified) |  | inactive: 12.1% |
| COc1ccccc1/C=N/NC(=O)c1ccccc1NS(=O)(=O)c1ccc(C)cc1 | inconclusive: 0.631 µM [activator, full curve] |  |
| Cc1cccc(COCC(CC(C)C)N2CCN(C(=O)c3ccc(C(F)(F)F)cc3)CCC2=O)c1 (stereo unspecified) | inconclusive: 0.259 µM [inhibitor, full curve, poor fit] |  |
| COc1cccc(N2CCN(C(=O)/C=C/c3ccco3)CC2)c1 |  | inactive: -11.5% [at 46.1 µM] |
| Cc1cccc(-c2nc3ccc(C(=O)N4CCC5(CC4)OCCO5)cc3nc2-c2cccc(C)c2)c1 | inconclusive: 15.8 µM [inhibitor, single point] |  |
| CC(=O)OC[C@H]1O[C@H](C#CC2=CCCCC2)C=C[C@@H]1OC(C)=O | inconclusive: 1.19 µM [activator, single point] |  |

Retrieved by compound from above:

| Structure (SMILES) | Potency | activity change, negative = inhibition |
| --- | --- | --- |
| O=C(CNC(=O)C1CC1)Nc1ccc(F)c(F)c1F |  | inactive: 2.79% [at 46.1 µM] |
| COc1ccc(Nc2nc(N3CCCC3)c3ccccc3n2)cc1 | active: 1.58 µM |  |

(further entries)

| Structure (SMILES) | Potency | activity change, negative = inhibition |
| --- | --- | --- |
| O=C(CSc1ccc(-c2ccco2)nn1)c1ccc(F)cc1 |  | inactive: 1.55% |
| Cc1ccc(C(=O)Nc2ccc(N3CCOCC3)c3nonc23)cc1[N+](=O)[O-] | inconclusive: 7.08 µM [activator, partial curve] |  |
| O=C(/C=C/Nc1ccccc1)c1cnc(-c2ccccc2)s1 | inconclusive: 0.282 µM [inhibitor, partial curve, poor fit] |  |
| Cc1ccccc1OCCC(=O)N1CCN(S(=O)(=O)c2ccc(Br)cc2)CC1 | inconclusive: 25.1 µM [inhibitor, single point] |  |
| Cc1ccc(CCNC(=O)c2ccc(CS(=O)(=O)c3ccc(Br)cc3)o2)cc1 | inconclusive: 35.5 µM [activator, single point] |  |
| CC(C)Sc1nc2ccccc2n2cnnc12 | inconclusive: 3.55 µM [activator, partial curve, poor fit] |  |
| COC(=O)CCn1[nH]c(=O)c2ccccc2c1=O | inconclusive: 1.12 µM [inhibitor, single point] |  |
| Cc1ccc(S(=O)(=O)c2cc3ccccc3nc2N)cc1 |  | inactive: -21.9% [at 46.1 µM] |
| CCCCNc1cccc2c1S(=O)(=O)N[C@@H](CC(C)C)CO2 | inconclusive: 0.0013 µM [activator] |  |
| Cc1cccc(-n2nnc(C(=O)NCc3ccccc3Cl)c2N)c1 | inconclusive: 6.31 µM [activator, partial curve, poor fit] |  |
| COc1ccc(NC(=O)CO/N=C2\CCCc3nonc32)cc1 | inconclusive: 1.26 µM [inhibitor, partial curve, poor fit] |  |
| O=C(OCn1nnc2ccccc2c1=O)c1cccnc1 |  | inactive: 3.05% |
| CCc1ccc(C(C)NC(=O)Cc2ccc(F)cc2)cc1 (stereo unspecified) | inconclusive: 0.562 µM [inhibitor, full curve, poor fit] |  |
| COC(=O)COc1ccc(NC(=O)c2ccco2)cc1 |  | inactive: -1.34% |
| O=C(Nn1cnnc1)C(c1ccccc1)c1ccccc1 | inconclusive: 7.94 µM [activator, partial curve, poor fit] |  |
| Brc1ccccc1/C=N/Nc1ccccn1 | inconclusive: 7.08 µM [activator, partial curve, poor fit] |  |
| CCn1ccnc1CN1CCCC(C(=O)c2ccc(SC)cc2)C1 (stereo unspecified) | inconclusive: 15.8 µM [inhibitor, single point] |  |
| Cc1nn(C)c(Oc2ccc(Cl)cc2)c1C(=O)Nc1ccc(F)cc1F |  | inactive: -20.5% |
| O=C(Nc1nc2c(s1)CCc1ccccc1-2)c1ccco1 | inconclusive: 0.146 µM [inhibitor, full curve, poor fit] |  |
| COc1ccccc1CN1CC(C(=O)NCc2cccnc2)CC1=O (stereo unspecified) | inconclusive: 23.1 µM [activator, partial curve, poor fit] |  |
| COc1cccc(CC(=O)OC(C)C(=O)Nc2ccc(N3CCOCC3)cc2)c1 (stereo unspecified) | inconclusive: 11.2 µM [activator, partial curve] |  |
| Cc1ccc(-n2ncc3c(NNC(=O)Cc4ccccc4)ncnc32)cc1 |  | inactive: 9.23% |
| CC(=O)Nc1ccc(OCC(=O)NC(C)C(C)C)cc1 (stereo unspecified) | inconclusive: 5.62 µM [activator, single point] |  |
